# Source: article PMC6690549
# Sequences of proteins named here, by UniProt entry; tags and fusion partners are left off. A change or cut given only in a name is not applied to a line headed by its entry. A line that says so, or that is headed by a name, gives the form on record, which may keep a tag or linker. Residues count along the entry.
# UniProt P78337: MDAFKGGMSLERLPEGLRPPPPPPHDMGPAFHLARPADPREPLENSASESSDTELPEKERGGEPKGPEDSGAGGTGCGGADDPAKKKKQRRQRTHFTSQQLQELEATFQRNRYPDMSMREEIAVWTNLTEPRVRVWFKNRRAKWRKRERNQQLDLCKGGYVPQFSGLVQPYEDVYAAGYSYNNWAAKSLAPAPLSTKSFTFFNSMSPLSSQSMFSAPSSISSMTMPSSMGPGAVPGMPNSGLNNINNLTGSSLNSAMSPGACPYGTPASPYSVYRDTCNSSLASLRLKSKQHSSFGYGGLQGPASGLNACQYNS
# Nucleophosmin (NPM1) (P06748-3, form named): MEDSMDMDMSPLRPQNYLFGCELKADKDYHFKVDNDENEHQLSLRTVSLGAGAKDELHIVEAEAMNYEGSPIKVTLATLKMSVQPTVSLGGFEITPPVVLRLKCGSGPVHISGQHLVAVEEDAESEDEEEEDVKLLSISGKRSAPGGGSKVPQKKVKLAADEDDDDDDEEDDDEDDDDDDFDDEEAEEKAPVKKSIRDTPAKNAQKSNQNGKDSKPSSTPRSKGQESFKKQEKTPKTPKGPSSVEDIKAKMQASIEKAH
# UniProt P31943: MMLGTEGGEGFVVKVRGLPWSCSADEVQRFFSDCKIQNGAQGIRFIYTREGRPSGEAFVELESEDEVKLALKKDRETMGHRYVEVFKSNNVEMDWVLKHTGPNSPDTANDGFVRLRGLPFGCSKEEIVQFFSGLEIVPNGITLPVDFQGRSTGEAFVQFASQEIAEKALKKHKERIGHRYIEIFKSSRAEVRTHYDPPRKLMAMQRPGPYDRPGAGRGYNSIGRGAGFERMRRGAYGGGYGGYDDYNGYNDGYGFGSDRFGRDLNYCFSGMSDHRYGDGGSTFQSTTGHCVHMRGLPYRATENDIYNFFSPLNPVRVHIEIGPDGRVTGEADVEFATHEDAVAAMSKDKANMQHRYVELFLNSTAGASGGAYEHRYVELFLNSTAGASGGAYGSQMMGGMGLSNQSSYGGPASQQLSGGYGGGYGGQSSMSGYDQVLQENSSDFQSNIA
# UniProt P38646, residues 47-679: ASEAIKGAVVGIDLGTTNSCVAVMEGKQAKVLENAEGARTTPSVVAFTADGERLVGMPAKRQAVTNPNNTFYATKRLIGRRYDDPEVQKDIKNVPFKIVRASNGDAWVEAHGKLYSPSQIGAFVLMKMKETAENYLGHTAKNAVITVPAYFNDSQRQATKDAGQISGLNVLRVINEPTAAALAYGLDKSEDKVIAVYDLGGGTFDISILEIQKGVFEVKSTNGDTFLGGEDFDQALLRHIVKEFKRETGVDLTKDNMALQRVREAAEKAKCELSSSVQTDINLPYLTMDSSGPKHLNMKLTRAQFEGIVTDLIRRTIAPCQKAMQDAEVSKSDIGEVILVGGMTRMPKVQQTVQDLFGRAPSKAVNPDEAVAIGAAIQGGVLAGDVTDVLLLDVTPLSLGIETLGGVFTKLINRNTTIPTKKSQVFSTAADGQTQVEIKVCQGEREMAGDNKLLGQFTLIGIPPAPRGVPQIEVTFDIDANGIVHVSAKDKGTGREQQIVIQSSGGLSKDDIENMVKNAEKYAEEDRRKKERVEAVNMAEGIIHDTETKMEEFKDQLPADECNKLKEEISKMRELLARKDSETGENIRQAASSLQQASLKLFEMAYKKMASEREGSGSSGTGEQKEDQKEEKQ
# Heterogeneous nuclear ribonucleoprotein A/B (hnRNP A/B) (Q99729-3, form named): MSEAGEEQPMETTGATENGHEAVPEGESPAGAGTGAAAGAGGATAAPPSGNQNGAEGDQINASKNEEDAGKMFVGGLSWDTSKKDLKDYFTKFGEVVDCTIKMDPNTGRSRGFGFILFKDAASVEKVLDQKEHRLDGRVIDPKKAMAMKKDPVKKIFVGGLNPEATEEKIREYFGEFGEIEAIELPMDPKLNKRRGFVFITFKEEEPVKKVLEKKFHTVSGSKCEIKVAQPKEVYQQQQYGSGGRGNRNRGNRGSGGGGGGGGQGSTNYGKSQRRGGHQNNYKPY
# Results are given in words; binding and its absence hold for the method and conditions named. In cells and extracts the contact can be indirect. Here binding means that the protein was enriched with, or labelled near, the bait; the list need not be complete.
# B1: Heterogeneous nuclear ribonucleoprotein A0 (hnRNP A0) (protein, UniProt Q13151 1-305)
# chain: MENSQLCKLFIGGLNVQTSESGLRGHFEAFGTLTDCVVVVNPQTKRSRCFGFVTYSNVEEADAAMAASPHAVDGNTVELKRAVSREDSARPGAHAKVKKLFVGGLKGDVAEGDLIEHFSQFGTVEKAEIIADKQSGKKRGFGFVYFQNHDAADKAAVVKFHPIQGHRVEVKKAVPKEDIYSGGGGGGSRSSRGGRGGRGRGGGRDQNGLSKGGGGGYNSYGGYGGGGGGGYNAYGGGGGGSSYGGSDYGNGFGGFGSYSQHQSSYGPMKSGGGGGGGGSSWGGRSNSGPYRGGYGGGGGYGGSSF
# Target: FLAG-tagged wild-type PITX1 (paired-like homeodomain 1) (human) (UniProt P78337)
# Assay: affinity purification with mass spectrometry; whole cell extracts of U2OS cells stably expressing FLAG-PITX1; anti-FLAG M2 affinity gel, 24 h at 4°C, lysis buffer 100 mM Tris HCl pH 7.5, 300 mM NaCl, 2 mM EDTA, 2% Triton X-100; eluted with FLAG peptide; trypsin digest, nanoLC/MS/MS; control: empty FLAG vector cells
row,binding,Molecule
1,binds,Nucleophosmin (NPM1) (from UniProt P06748-3 1-259)
2,binds,Heterogeneous nuclear ribonucleoprotein H (hnRNP H) (from UniProt P31943 1-449)
3,binds,"Zinc finger CCHC domain-containing protein 10 (ZCCHC10), endogenous (from UniProt Q8TBK6-1 1-192)"
4,binds,75 kDa glucose-regulated protein (HSPA9) (from UniProt P38646 47-679)
5,binds,Heterogeneous nuclear ribonucleoprotein A/B (hnRNP A/B) (from UniProt Q99729-3 1-285)
6,binds,B1
